The supplement of paper PMC6331611
± gives the standard deviation of the averaged measurements. Whole data set: some 1,600 compounds, median “normalized intracellular growth (luminescence, IQM-normalized) in RAW264.7 macrophages” near 1, cut for the lowest 2% near 0.43. The list shows a part of the results.

Tested on: Salmonella enterica serovar Typhimurium SL1344
Experiment: normalized intracellular growth (luminescence, IQM-normalized) in RAW264.7 macrophages (fraction of plate interquartile mean); higher = more bacterial growth (less inhibition)
Conditions: 10 µM

SMILES | normalized intracellular growth (time point: T3 (3 h)) | normalized intracellular growth (time point: Tfinal (~6 h))
CC[N+](CC)(CC(=O)Nc1c(C)cccc1C)Cc1ccccc1 | 0.988 ± 0.034 | 0.657 ± 0.16
COc1cc(NS(=O)(=O)c2ccc(N)cc2)nc(OC)n1 | 0.9915 ± 0.0078 | 1.02 ± 0.081
CC1(C)O[C@@H]2[C@@H](CO[C@@]3(COS(N)(=O)=O)OC(C)(C)O[C@@H]23)O1 | 1.02 ± 0.039 | 1.1 ± 0.043
S=c1[nH]cnc2nc[nH]c12 | 0.96 ± 0.029 | 0.522 ± 0.081
CCCCCCCCNC(C)C(O)c1ccc(SC(C)C)cc1 (stereo not drawn) | 0.718 ± 0.18 | 0.895 ± 0.057
C[C@H]1O[C@@H](O[C@H]2[C@@H](O)C[C@H](O[C@H]3[C@@H](O)C[C@H](O[C@H]4CC[C@@]5(C)[C@H](CC[C@@H]6[C@@H]5CC[C@]5(C)[C@@H](C7=CC(=O)OC7)CC[C@]65O)C4)O[C@@H]3C)O[C@@H]2C)C[C@H](O)[C@@H]1O | 1.03 ± 0.042 | 1.08 ± 0.087
CC(=O)CC(c1ccc([N+](=O)[O-])cc1)c1c(O)c2ccccc2oc1=O (stereo not drawn) | 1.03 ± 0.023 | 1.02 ± 0.23
CC1(C)S[C@@H]2[C@H](NC(=O)COc3ccccc3)C(=O)N2[C@H]1C(=O)O | 0.797 ± 0.064 | 1.19 ± 0.11
CCCC(=O)O[C@]1(C(=O)CO)CC[C@H]2[C@@H]3CCC4=CC(=O)CC[C@]4(C)[C@H]3[C@@H](O)C[C@@]21C | 1.03 ± 0.025 | 0.928 ± 0.28
COc1ccc2c3c1O[C@H]1C[C@@H](O)C=C[C@@]31CCN(C)C2 | 1.02 ± 0.024 | 1.02 ± 0.044
Cc1nnc(SCC2=C(C(=O)O)N3C(=O)[C@@H](NC(=O)Cn4cnnn4)[C@H]3SC2)s1 | 1.09 ± 0.087 | 1.2 ± 0.074
CC(C)NC(=N)NC(=N)Nc1ccc(Cl)cc1 | 0.664 ± 0.018 | 0.164 ± 0.01
CC1(C)[C@@H](O)CC[C@]2(C)[C@H]3C(=O)C=C4[C@@H]5C[C@@](C)(C(=O)O)CC[C@]5(C)CC[C@@]4(C)[C@]3(C)CC[C@@H]12 | 0.954 ± 0.025 | 0.762 ± 0.1
C[C@]12CCC(=O)C=C1C=C[C@@H]1[C@@H]2CC[C@@]2(C)[C@H]1CC[C@@]21CCC(=O)O1 | 1.03 ± 0.024 | 1.29 ± 0.029
COCCOC(=O)C1=C(C)NC(C)=C(C(=O)OC(C)C)C1c1cccc([N+](=O)[O-])c1 (stereo not drawn) | 0.964 ± 0.03 | 1.12 ± 0.06
NCCS | 1.13 ± 0.061 | 0.9 ± 0.22
COc1c(C)c2c(c(O)c1C/C=C(\C)CCC(=O)OCCN1CCOCC1)C(=O)OC2 | 1 ± 0.064 | 1.42 ± 0.078
CN1C(C(=O)Nc2ccccn2)=C(O)c2ccccc2S1(=O)=O | 0.907 ± 0.24 | 0.943 ± 0.079
NC(=O)c1ccc[n+]([C@@H]2O[C@H](COP(=O)([O-])OP(=O)(O)OC[C@H]3O[C@@H](n4cnc5c(N)ncnc54)[C@H](O)[C@@H]3O)[C@@H](O)[C@H]2O)c1 | 0.93 ± 0.04 | 1.27 ± 0.076
NCC(=O)CCC(=O)O | 1.09 ± 0.029 | 1.02 ± 0.042
COc1ccc(CN(CCN(C)C)c2ncccn2)cc1 | 1.1 ± 0.06 | 1.1 ± 0.093
O=C(O)/C=C/C(=O)O | 1.14 ± 0.1 | 1.03 ± 0.16
O=C(O)C[C@H](O)C[C@H](O)/C=C/c1c(C2CC2)nc2ccccc2c1-c1ccc(F)cc1 | 1.2 ± 0.096 | 1.17 ± 0.056
Cc1ccc(C)c(OCCCC(C)(C)C(=O)O)c1 | 0.941 ± 0.056 | 0.968 ± 0.068
O=C(CCCN1CCC(O)(c2ccc(Cl)cc2)CC1)c1ccc(F)cc1 | 0.957 ± 0.056 | 1 ± 0.085
CN(C)CCN(Cc1ccc(Cl)cc1)c1ccccn1 | 0.997 ± 0.03 | 1.01 ± 0.11
CCCCCCCCCCOc1cc2c(O)c(C(=O)OCC)cnc2cc1OCC | 0.942 ± 0.08 | 0.973 ± 0.13

An excerpt from above in order of heavy-atom count, descending.
SMILES | normalized intracellular growth (time point: T3 (3 h)) | normalized intracellular growth (time point: Tfinal (~6 h))
COCCOC(=O)C1=C(C)NC(C)=C(C(=O)OC(C)C)C1c1cccc([N+](=O)[O-])c1 (stereo not drawn) | 0.964 ± 0.03 | 1.12 ± 0.06
O=C(CCCN1CCC(O)(c2ccc(Cl)cc2)CC1)c1ccc(F)cc1 | 0.957 ± 0.056 | 1 ± 0.085
COc1ccc2c3c1O[C@H]1C[C@@H](O)C=C[C@@]31CCN(C)C2 | 1.02 ± 0.024 | 1.02 ± 0.044

Next part.

SMILES | normalized intracellular growth (time point: T3 (3 h)) | normalized intracellular growth (time point: Tfinal (~6 h))
COc1ccc([C@@H]2Sc3ccccc3N(CCN(C)C)C(=O)[C@@H]2OC(C)=O)cc1 | 1.019 ± 0.0067 | 1.03 ± 0.044
CC(C[N+](C)(C)C)OC(N)=O (stereo not drawn) | 1.01 ± 0.036 | 0.908 ± 0.07
NCCc1cc[nH]n1 | 1.07 ± 0.017 | 1.24 ± 0.14
Cc1c(NC(C)C)c(=O)n(-c2ccccc2)n1C | 0.98 ± 0.017 | 0.917 ± 0.22
Cc1ccc(C(=O)C(C)CN2CCCCC2)cc1 (stereo not drawn) | 1.04 ± 0.017 | 0.872 ± 0.049
CNCC[C@@H](Oc1ccccc1C)c1ccccc1 | 1.01 ± 0.013 | 0.902 ± 0.042
O=C(CCCCC(=O)Nc1c(I)cc(I)c(C(=O)O)c1I)Nc1c(I)cc(I)c(C(=O)O)c1I | 1.08 ± 0.034 | 1.04 ± 0.026
COCCCOc1ccnc(C[S+]([O-])c2nc3ccccc3[nH]2)c1C (stereo not drawn) | 1.03 ± 0.12 | 1.01 ± 0.16
O=C(O)Cc1cc(I)c(Oc2ccc(O)c(I)c2)c(I)c1 | 1.01 ± 0.017 | 1.18 ± 0.038
COCCCOc1cc(C[C@@H](C[C@H](N)[C@@H](O)C[C@H](C(=O)NCC(C)(C)C(N)=O)C(C)C)C(C)C)ccc1OC | 0.926 ± 0.018 | 0.809 ± 0.29
C#C[C@]1(OC(C)=O)CC[C@H]2[C@@H]3CCC4=CC(=O)CC[C@@H]4[C@H]3CC[C@@]21C | 1.03 ± 0.046 | 0.972 ± 0.043
CCCCOC(=O)c1ccc(O)cc1 | 1.01 ± 0.029 | 0.989 ± 0.013
CCCc1nc2c(C)cc(-c3nc4ccccc4n3C)cc2n1Cc1ccc(-c2ccccc2C(=O)O)cc1 | 0.999 ± 0.11 | 0.597 ± 0.38
N=C(N)N1CCc2ccccc2C1 | 0.963 ± 0.068 | 1.16 ± 0.083
CC(=O)/N=c1/sc(S(N)(=O)=O)nn1C | 1.09 ± 0.044 | 0.892 ± 0.37
CC1=CC(=O)c2ccccc2C1=O | 1.22 ± 0.017 | 1.21 ± 0.035
CCCCC1C(=O)N(c2ccccc2)N(c2ccccc2)C1=O | 0.986 ± 0.043 | 1.08 ± 0.04
O=C(Nc1ccccc1)OCC(CN1CCCCC1)OC(=O)Nc1ccccc1 (stereo not drawn) | 1.02 ± 0.084 | 1.24 ± 0.32
N=C(N)c1ccc(N=NNc2ccc(C(=N)N)cc2)cc1 | 0.994 ± 0.014 | 0.922 ± 0.023
CCCC(=O)Nc1ccc(OCC(O)CNC(C)C)c(C(C)=O)c1 (stereo not drawn) | 0.948 ± 0.099 | 1 ± 0.1
C[C@@H]1O[C@@H](OC[C@H]2O[C@@H](Oc3c(-c4ccc(O)c(O)c4)oc4cc(O)cc(O)c4c3=O)[C@H](O)[C@@H](O)[C@@H]2O)[C@H](O)[C@H](O)[C@H]1O | 0.989 ± 0.045 | 0.977 ± 0.15
CO/N=C(\C(=O)N[C@@H]1C(=O)N2C(C(=O)O)=C(CSC(=O)c3ccco3)CS[C@H]12)c1csc(N)n1 | 1 ± 0.029 | 0.0233 ± 0.0029
Cc1oc(=O)oc1CN1CCN(c2cc3c(cc2F)c(=O)c(C(=O)O)c2n3C(C)S2)CC1 (stereo not drawn) | 1.14 ± 0.069 | 0.0187 ± 0.0013
C=COCC(F)(F)F | 0.944 ± 0.035 | 0.991 ± 0.069
CC(=O)OCC(=O)[C@@]12OC3(CCCC3)O[C@@H]1C[C@H]1[C@@H]3CCC4=CC(=O)C=C[C@]4(C)[C@@]3(F)[C@@H](O)C[C@@]12C | 0.993 ± 0.075 | 0.85 ± 0.32
N[C@@H](CC(=O)N1CCn2c(nnc2C(F)(F)F)C1)Cc1cc(F)c(F)cc1F | 1.03 ± 0.014 | 1.08 ± 0.09
C#CC1(O)CC[C@H]2[C@@H]3CCC4=CC(=O)CC[C@@H]4[C@H]3CC[C@@]21CC (stereo partly drawn) | 0.987 ± 0.056 | 0.966 ± 0.07
